The source gives many values for each of these; only a part stands here.
System: H. pylori 26695
Test: In vivo inhibition of HsrA: RNA-Seq transcriptomic analysis of exposed cells
Assay type: cell-based, Helicobacter pylori
Experimental: Bacterial growth from three blood agar plates of H. pylori ATCC 700392 (aka 26695) incubated for 48 h at 37 °C under microaerobic conditions was aseptically resuspended in BHI + FBS and adjusted to 10^7 CFU/mL. BHI broth cultures were incubated microaerobically at 37 °C for 24 h. […] At this time, bacterial growth was stopped by adding 1.5 mL ice-cold RNA stop solution (95% absolute ethanol, 5% acid-buffered phenol) and subsequently incubated on ice. Control samples were exposed to the same amount of DMSO instead of the inhibitor. Helicobacter cells from all samples were harvested by centrifugation (4000 rpm at 4 °C for 10 min), then the pellets were quickly frozen by immersion in liquid nitrogen and stored at −80 °C.
RNA-Seq analysis was performed by GENEWIZ (Azenta Life Sciences, Leipzig, Germany). Frozen cell pellets from two biological replicates of each treatment condition were properly submitted to GENEWIZ in dry ice. RNA-Seq libraries were prepared according to standard protocols via rRNA depletion, RNA fragmentation and random priming, reverse transcription, 5’-phosphorylation and dA-tailing of cDNAs, adaptor ligation, and PCR enrichment. Once the quality of each library was confirmed, they were sequenced on an Illumina NovaSeq 6000 (Illumina, San Diego, CA, USA) with 150-bp paired-ends. Raw sequence reads were filtered to remove possible adapter sequences and nucleotides with poor quality using Trimmomatic v.0.36 [105]. The trimmed reads were subsequently mapped to the H. pylori strain 26695 reference genome NC_000915.1 available on NCBI, by using the Bowtie2 aligner v.2.2.6 [106]. Unique gene hit counts were calculated by using featureCounts from the Subread package v.1.5.2. Only unique reads that fell within the gene regions were counted. Using DESeq2 [108], a comparison of the gene expression between the control and treated groups of samples was performed. The Wald test was used to generate p-values and log2 fold changes. Genes with an adjusted p-value < 0.05 and absolute log2 fold change >1 were considered as differentially expressed genes (DEGs) for each comparison. The RNA-Seq data generated in this study have been deposited in ArrayExpress with the accession number E-MTAB-14255.

SMILES: NC(=NOC(=O)Nc1ccc(Cl)cc1)c1csc([N+](=O)[O-])c1 [Ligand V, N′-{[(4-chloroanilino)carbonyl]}oxy-5-nitrothiophene-3-carboximidamide]
- log2 Fold Change (gene HP0980, exposed to lethal concentrations vs control): 1.063
- log2 Fold Change (gene HP0982, exposed to lethal concentrations of V vs control): 0.983
- log2 Fold Change (gene HP0983, exposed to lethal concentrations vs control): 1.170
- log2 Fold Change (gene HP0985, exposed to lethal concentrations of V vs control): 0.484
- log2 Fold Change (gene HP0988, exposed to lethal concentrations vs control): -0.008
- log2 Fold Change (gene HP0994, exposed to lethal concentrations vs control): 0.127
- log2 Fold Change (gene HP0996, exposed to lethal concentrations of V vs control): 0.783
- log2 Fold Change (gene HP0998, exposed to lethal concentrations vs control): 0.035
- log2 Fold Change (gene HP1001, exposed to lethal concentration of V vs control): -0.930
- log2 Fold Change (gene HP1002, exposed to lethal concentrations vs control): 0.048
- log2 Fold Change (gene HP1005, exposed to lethal concentrations of V vs control): 0.858
- log2 Fold Change (gene HP1006, exposed to lethal concentration of V vs control): -1.067
- log2 Fold Change (gene HP1010, exposed to lethal concentrations vs control): 0.043
- log2 Fold Change (gene HP1011, exposed to lethal concentrations of V vs control): 0.489
- log2 Fold Change (gene HP1012, exposed to lethal concentrations vs control): 0.131
- log2 Fold Change (gene HP1015, exposed to lethal concentration of V vs control): -0.935
- log2 Fold Change (gene HP1016, exposed to lethal concentration of V vs control): -1.409
- log2 Fold Change (gene HP1017, exposed to lethal concentrations of V vs control): 0.976
- log2 Fold Change (gene HP1021, exposed to lethal concentrations vs control): -0.829
- log2 Fold Change (gene HP1024, exposed to lethal concentrations vs control): 1.415
- log2 Fold Change (gene HP1025, exposed to lethal concentrations vs control): 1.921
- log2 Fold Change (gene HP1026, exposed to lethal concentrations of V vs control): 0.946
- log2 Fold Change (gene HP1027, exposed to lethal concentrations of V vs control): 0.742
- log2 Fold Change (gene HP1028, exposed to lethal concentrations vs control): 1.121
- log2 Fold Change (gene HP1029, exposed to lethal concentration of V vs control): -0.912
- log2 Fold Change (gene HP1034, exposed to lethal concentration of V vs control): -1.139
- log2 Fold Change (gene HP1037, exposed to lethal concentrations of V vs control): 0.949
- log2 Fold Change (gene HP1038, exposed to lethal concentrations of V vs control): 0.847
- log2 Fold Change (gene HP1039, exposed to lethal concentration of V vs control): -1.464
- log2 Fold Change (gene HP1043, exposed to lethal concentrations of V vs control): 0.497
- log2 Fold Change (gene HP1044, exposed to lethal concentrations vs control): 1.898
- log2 Fold Change (gene HP1045, exposed to lethal concentrations vs control): 1.636
- log2 Fold Change (gene HP1049, exposed to lethal concentrations of V vs control): 0.786
- log2 Fold Change (gene HP1050, exposed to lethal concentrations vs control): 1.086
- log2 Fold Change (gene HP1051, exposed to lethal concentrations vs control): -0.081
- log2 Fold Change (gene HP1054, exposed to lethal concentrations vs control): -0.047
- log2 Fold Change (gene HP1055, exposed to lethal concentrations of V vs control): 0.866
- log2 Fold Change (gene HP1056, exposed to lethal concentrations of V vs control): 0.674
- log2 Fold Change (gene HP1060, exposed to lethal concentrations of V vs control): 0.850
- log2 Fold Change (gene HP1061, exposed to lethal concentrations vs control): -0.067
- log2 Fold Change (gene HP1064, exposed to lethal concentration of V vs control): -3.063
- log2 Fold Change (gene HP1065, exposed to lethal concentration of V vs control): -1.866
- log2 Fold Change (gene HP1066, exposed to lethal concentrations vs control): 1.053
- log2 Fold Change (gene HP1069, exposed to lethal concentrations vs control): 1.913
- log2 Fold Change (gene HP1070, exposed to lethal concentrations vs control): 1.174
- log2 Fold Change (gene HP1072, exposed to lethal concentration of V vs control): -1.096
- log2 Fold Change (gene HP1073, exposed to lethal concentration of V vs control): -1.360
- log2 Fold Change (gene HP1074, exposed to lethal concentration of V vs control): -1.064
- log2 Fold Change (gene HP1076, exposed to lethal concentration of V vs control): -2.055
- log2 Fold Change (gene HP1079, exposed to lethal concentrations vs control): -0.624
- log2 Fold Change (gene HP1082, exposed to lethal concentrations vs control): -0.648
- log2 Fold Change (gene HP1086, exposed to lethal concentrations vs control): 1.049
- log2 Fold Change (gene HP1089, exposed to lethal concentrations vs control): -0.050
- log2 Fold Change (gene HP1092, exposed to lethal concentration of V vs control): -0.875
- log2 Fold Change (gene HP1097, exposed to lethal concentrations of V vs control): 0.502
- log2 Fold Change (gene HP1099, exposed to lethal concentrations vs control): 1.898
- log2 Fold Change (gene HP1100, exposed to lethal concentrations vs control): 2.027
- log2 Fold Change (gene HP1101, exposed to lethal concentrations vs control): 1.496
- log2 Fold Change (gene HP1104, exposed to lethal concentrations vs control): 1.081
- log2 Fold Change (gene HP1105, exposed to lethal concentrations of V vs control): 0.551
- log2 Fold Change (gene HP1107, exposed to lethal concentrations of V vs control): 0.800
- log2 Fold Change (gene HP1111, exposed to lethal concentrations of V vs control): 0.677
- log2 Fold Change (gene HP1114, exposed to lethal concentrations vs control): 1.030
- log2 Fold Change (gene HP1116, exposed to lethal concentrations vs control): 2.599
- log2 Fold Change (gene HP1117, exposed to lethal concentrations vs control): -0.127
- log2 Fold Change (gene HP1118, exposed to lethal concentrations of V vs control): 0.908
- log2 Fold Change (gene HP1122a, exposed to lethal concentration of V vs control): -1.391
- log2 Fold Change (gene HP1123, exposed to lethal concentration of V vs control): -1.061
- log2 Fold Change (gene HP1124, exposed to lethal concentrations vs control): -0.120
- log2 Fold Change (gene HP1129, exposed to lethal concentrations vs control): 0.018
- log2 Fold Change (gene HP1130, exposed to lethal concentrations vs control): -0.120
- log2 Fold Change (gene HP1133, exposed to lethal concentrations vs control): -0.046
- log2 Fold Change (gene HP1134, exposed to lethal concentrations vs control): -0.124
- log2 Fold Change (gene HP1135, exposed to lethal concentration of V vs control): -1.160
- log2 Fold Change (gene HP1136, exposed to lethal concentration of V vs control): -1.023
- log2 Fold Change (gene HP1137, exposed to lethal concentration of V vs control): -1.280
- log2 Fold Change (gene HP1138, exposed to lethal concentrations vs control): -0.008
- log2 Fold Change (gene HP1143, exposed to lethal concentrations vs control): 1.282
- log2 Fold Change (gene HP1150, exposed to lethal concentration of V vs control): -1.699
- log2 Fold Change (gene HP1152, exposed to lethal concentrations of V vs control): 0.544
- log2 Fold Change (gene HP1156, exposed to lethal concentrations of V vs control): 0.792
- log2 Fold Change (gene HP1160, exposed to lethal concentration of V vs control): -1.357
- log2 Fold Change (gene HP1161, exposed to lethal concentration of V vs control): -0.885
- log2 Fold Change (gene HP1162, exposed to lethal concentrations of V vs control): 0.885
- log2 Fold Change (gene HP1163, exposed to lethal concentrations vs control): 0.00232
- log2 Fold Change (gene HP1167, exposed to lethal concentrations vs control): 3.244
- log2 Fold Change (gene HP1168, exposed to lethal concentrations vs control): 1.208
- log2 Fold Change (gene HP1169, exposed to lethal concentrations vs control): -0.099
- log2 Fold Change (gene HP1170, exposed to lethal concentrations vs control): 0.075
- log2 Fold Change (gene HP1172, exposed to lethal concentrations vs control): -0.779
- log2 Fold Change (gene HP1173, exposed to lethal concentration of V vs control): -1.612
- log2 Fold Change (gene HP1174, exposed to lethal concentrations vs control): 2.040
- log2 Fold Change (gene HP1175, exposed to lethal concentrations vs control): -0.059
- log2 Fold Change (gene HP1177, exposed to lethal concentrations vs control): -0.050
- log2 Fold Change (gene HP1178, exposed to lethal concentrations vs control): 1.251
- log2 Fold Change (gene HP1179, exposed to lethal concentrations of V vs control): 0.862
- log2 Fold Change (gene HP1180, exposed to lethal concentrations vs control): 1.264
- log2 Fold Change (gene HP1182, exposed to lethal concentrations vs control): -0.090
- log2 Fold Change (gene HP1185, exposed to lethal concentrations vs control): -0.823
- log2 Fold Change (gene HP1186, exposed to lethal concentrations vs control): 1.025
- log2 Fold Change (gene HP1187, exposed to lethal concentrations vs control): -0.125
- log2 Fold Change (gene HP1189, exposed to lethal concentrations of V vs control): 0.643
- log2 Fold Change (gene HP1192, exposed to lethal concentrations of V vs control): 0.493
- log2 Fold Change (gene HP1198, exposed to lethal concentrations vs control): 1.009
- log2 Fold Change (gene HP1198a, exposed to lethal concentration of V vs control): -1.810
- log2 Fold Change (gene HP1206, exposed to lethal concentrations of V vs control): 0.561
- log2 Fold Change (gene HP1207, exposed to lethal concentrations vs control): 1.215
- log2 Fold Change (gene HP1208, exposed to lethal concentrations vs control): 1.199
- log2 Fold Change (gene HP1210, exposed to lethal concentrations vs control): 1.562
- log2 Fold Change (gene HP1212, exposed to lethal concentrations vs control): 0.011
- log2 Fold Change (gene HP1218a, exposed to lethal concentrations vs control): 2.569
- log2 Fold Change (gene HP1220, exposed to lethal concentrations of V vs control): 0.577
- log2 Fold Change (gene HP1223, exposed to lethal concentrations vs control): -0.862
- log2 Fold Change (gene HP1227, exposed to lethal concentration of V vs control): -1.052
- log2 Fold Change (gene HP1228, exposed to lethal concentration of V vs control): -0.931
- log2 Fold Change (gene HP1231, exposed to lethal concentration of V vs control): -1.565
- log2 Fold Change (gene HP1233, exposed to lethal concentrations vs control): 1.163
- log2 Fold Change (gene HP1237, exposed to lethal concentrations of V vs control): 0.945
- log2 Fold Change (gene HP1242, exposed to lethal concentrations vs control): 0.054
